PubChem BioAssay AID652272, Drosophila RNAi Screening Center | 2013
The screen tested about 21,000 reagents; below is an unselected part of those that have a named target and a result. In the full data, 503 (2.4%) are marked active. 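Raw plate light values, not normalised; calls rest on replicate z-scores that were not deposited; hits include reporter decreases as well as increases.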 Reagents against one gene are numbered here. A plus sign joins genes that one reagent is predicted to hit. Not given: the amount of reagent, the time to read-out.

Aim: 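Finding fly genes that regulate Hedgehog signal transduction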 (primary screen)
Cell system: Drosophila clone 8 (Cl8) cells
Knock-down reagent: long dsRNA against Drosophila genes
Measured: 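Plate reader light from a firefly reporter under a ptc promoter fragment that responds to Hedgehog, with Renilla light as transfection reference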
Scale: firefly Hh reporter signal: higher = more ptc reporter light; Renilla reference signal: higher = more Renilla control light
Active means: 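Hit when the z-score averaged over two replicates is under -2 or over +3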
Meaning of the calls: active = hit: reporter lowered or raised; inactive = not a hit

What did the screen give for egr?
firefly Hh reporter signal, replicate 1: 1.03e5; firefly Hh reporter signal, replicate 2: 70160; Renilla reference signal, replicate 1: 2838; Renilla reference signal, replicate 2: 5705; activity call: inactive

For CG5906, what does the deposit list?
firefly Hh reporter signal, replicate 1: 48576; firefly Hh reporter signal, replicate 2: 26528; firefly Hh reporter signal, replicate 3: 52012; Renilla reference signal, replicate 1: 2620; Renilla reference signal, replicate 2: 3472; activity call: inactive

With Or65b, what was measured?
firefly Hh reporter signal, replicate 1: 1.45e5; firefly Hh reporter signal, replicate 2: 2.72e5; Renilla reference signal, replicate 1: 3756; Renilla reference signal, replicate 2: 10730; activity call: inactive

Which result is listed for Cpr49Af?
firefly Hh reporter signal, replicate 1: 60361; firefly Hh reporter signal, replicate 2: 56996; Renilla reference signal, replicate 1: 1676; Renilla reference signal, replicate 2: 4058; activity call: inactive

With Hao + Pex6 #1, how do the results read?
firefly Hh reporter signal, replicate 1: 90102; firefly Hh reporter signal, replicate 2: 44396; Renilla reference signal, replicate 1: 3430; Renilla reference signal, replicate 2: 1416; activity call: inactive

How did the screen score Hao + Pex6 #2?
firefly Hh reporter signal, replicate 1: 73602; firefly Hh reporter signal, replicate 2: 43668; Renilla reference signal, replicate 1: 1657; Renilla reference signal, replicate 2: 3643; activity call: inactive

For ana1, what was measured?
firefly Hh reporter signal, replicate 1: 1.93e5; firefly Hh reporter signal, replicate 2: 1.50e5; Renilla reference signal, replicate 1: 6449; Renilla reference signal, replicate 2: 6064; activity call: inactive

What did the screen give for SrpRalpha?
firefly Hh reporter signal, replicate 1: 1.33e5; firefly Hh reporter signal, replicate 2: 72455; Renilla reference signal, replicate 1: 3082; Renilla reference signal, replicate 2: 2049; activity call: inactive

What is on record for CG8568?
firefly Hh reporter signal, replicate 1: 78469; firefly Hh reporter signal, replicate 2: 81404; Renilla reference signal, replicate 1: 1771; Renilla reference signal, replicate 2: 2080; activity call: inactive

For Fkbp39, what was measured?
firefly Hh reporter signal, replicate 1: 72273; firefly Hh reporter signal, replicate 2: 68618; Renilla reference signal, replicate 1: 3168; Renilla reference signal, replicate 2: 3200; activity call: inactive

For SmydA-9, how do the results read?
firefly Hh reporter signal, replicate 1: 82608; firefly Hh reporter signal, replicate 2: 1.75e5; Renilla reference signal, replicate 1: 2433; Renilla reference signal, replicate 2: 6443; activity call: inactive

A run of entries of the results above:
SrpRalpha — firefly Hh reporter signal, replicate 1 = 1.33e5; firefly Hh reporter signal, replicate 2 = 72455; Renilla reference signal, replicate 1 = 3082; Renilla reference signal, replicate 2 = 2049; activity call = inactive
CG8568 — firefly Hh reporter signal, replicate 1 = 78469; firefly Hh reporter signal, replicate 2 = 81404; Renilla reference signal, replicate 1 = 1771; Renilla reference signal, replicate 2 = 2080; activity call = inactive
Fkbp39 — firefly Hh reporter signal, replicate 1 = 72273; firefly Hh reporter signal, replicate 2 = 68618; Renilla reference signal, replicate 1 = 3168; Renilla reference signal, replicate 2 = 3200; activity call = inactive
SmydA-9 — firefly Hh reporter signal, replicate 1 = 82608; firefly Hh reporter signal, replicate 2 = 1.75e5; Renilla reference signal, replicate 1 = 2433; Renilla reference signal, replicate 2 = 6443; activity call = inactive

Continued.
What did the screen give for CG34337?
firefly Hh reporter signal, replicate 1: 1.04e5; firefly Hh reporter signal, replicate 2: 2.61e5; Renilla reference signal, replicate 1: 3280; Renilla reference signal, replicate 2: 8770; activity call: inactive

For CG15337, how do the results read?
firefly Hh reporter signal, replicate 1: 1.56e5; firefly Hh reporter signal, replicate 2: 5.11e5; Renilla reference signal, replicate 1: 5523; Renilla reference signal, replicate 2: 15589; activity call: inactive

With Toll-4, what does the deposit list?
firefly Hh reporter signal, replicate 1: 65352; firefly Hh reporter signal, replicate 2: 59619; Renilla reference signal, replicate 1: 1883; Renilla reference signal, replicate 2: 5017; activity call: inactive

Which result is listed for His2B:CG33870 + His2B:CG33868 + His2B:CG33882 + 21 more?
firefly Hh reporter signal, replicate 1: 22613; firefly Hh reporter signal, replicate 2: 14324; Renilla reference signal, replicate 1: 681; Renilla reference signal, replicate 2: 1287; activity call: inactive

How did the screen score CG5087?
firefly Hh reporter signal, replicate 1: 41923; firefly Hh reporter signal, replicate 2: 50000; Renilla reference signal, replicate 1: 4055; Renilla reference signal, replicate 2: 4011; activity call: inactive

Which result is listed for CG12511?
firefly Hh reporter signal, replicate 1: 1.10e5; firefly Hh reporter signal, replicate 2: 99649; Renilla reference signal, replicate 1: 3211; Renilla reference signal, replicate 2: 8779; activity call: inactive

For CG31013, what was measured?
firefly Hh reporter signal, replicate 1: 95068; firefly Hh reporter signal, replicate 2: 91792; Renilla reference signal, replicate 1: 2132; Renilla reference signal, replicate 2: 2545; activity call: inactive

With snsl, what does the deposit list?
firefly Hh reporter signal, replicate 1: 1.32e5; firefly Hh reporter signal, replicate 2: 55281; Renilla reference signal, replicate 1: 3347; Renilla reference signal, replicate 2: 5560; activity call: inactive

With CG10132, what does the deposit list?
firefly Hh reporter signal, replicate 1: 52739; firefly Hh reporter signal, replicate 2: 31987; Renilla reference signal, replicate 1: 2579; Renilla reference signal, replicate 2: 1833; activity call: inactive

For CG13930, what does the deposit list?
firefly Hh reporter signal, replicate 1: 76956; firefly Hh reporter signal, replicate 2: 49728; Renilla reference signal, replicate 1: 2741; Renilla reference signal, replicate 2: 3126; activity call: inactive

What did the screen give for Hsp67Bc?
firefly Hh reporter signal, replicate 1: 31345; firefly Hh reporter signal, replicate 2: 35292; firefly Hh reporter signal, replicate 3: 67524; Renilla reference signal, replicate 1: 3232; Renilla reference signal, replicate 2: 4697; activity call: inactive

With Npc2a, how do the results read?
firefly Hh reporter signal, replicate 1: 79234; firefly Hh reporter signal, replicate 2: 73543; Renilla reference signal, replicate 1: 1928; Renilla reference signal, replicate 2: 1655; activity call: inactive

Which result is listed for stc?
firefly Hh reporter signal, replicate 1: 67371; firefly Hh reporter signal, replicate 2: 45095; Renilla reference signal, replicate 1: 2937; Renilla reference signal, replicate 2: 1836; activity call: inactive

For Nplp3, what does the deposit list?
firefly Hh reporter signal, replicate 1: 1.79e5; Renilla reference signal, replicate 1: 2267; Renilla reference signal, replicate 2: 5216; activity call: inactive

With Acer, what was measured?
firefly Hh reporter signal, replicate 1: 98756; firefly Hh reporter signal, replicate 2: 1.38e5; Renilla reference signal, replicate 1: 4276; Renilla reference signal, replicate 2: 5090; activity call: inactive

For CG14985 #1, how do the results read?
firefly Hh reporter signal, replicate 1: 89271; firefly Hh reporter signal, replicate 2: 2.15e5; Renilla reference signal, replicate 1: 6009; Renilla reference signal, replicate 2: 8019; activity call: inactive

What is on record for CG14985 #2?
firefly Hh reporter signal, replicate 1: 1.03e5; firefly Hh reporter signal, replicate 2: 51440; Renilla reference signal, replicate 1: 3329; Renilla reference signal, replicate 2: 4369; activity call: inactive
